The target in this experiment is myc-tagged Fxr1 (UniProt P51114). The experiment is described as follows: co-IP; HEK293T transiently transfected, lysed 24 h later in Tween 20 buffer; Flag affinity gel, anti-c-Myc agarose affinity gel or anti-His affinity resin; immunoblot.

Chains of the proteins cited; added tags and fusions are not shown. Lines headed by an entry give the natural chain unless they say otherwise; changes in a name come on top.
UniProt P51114: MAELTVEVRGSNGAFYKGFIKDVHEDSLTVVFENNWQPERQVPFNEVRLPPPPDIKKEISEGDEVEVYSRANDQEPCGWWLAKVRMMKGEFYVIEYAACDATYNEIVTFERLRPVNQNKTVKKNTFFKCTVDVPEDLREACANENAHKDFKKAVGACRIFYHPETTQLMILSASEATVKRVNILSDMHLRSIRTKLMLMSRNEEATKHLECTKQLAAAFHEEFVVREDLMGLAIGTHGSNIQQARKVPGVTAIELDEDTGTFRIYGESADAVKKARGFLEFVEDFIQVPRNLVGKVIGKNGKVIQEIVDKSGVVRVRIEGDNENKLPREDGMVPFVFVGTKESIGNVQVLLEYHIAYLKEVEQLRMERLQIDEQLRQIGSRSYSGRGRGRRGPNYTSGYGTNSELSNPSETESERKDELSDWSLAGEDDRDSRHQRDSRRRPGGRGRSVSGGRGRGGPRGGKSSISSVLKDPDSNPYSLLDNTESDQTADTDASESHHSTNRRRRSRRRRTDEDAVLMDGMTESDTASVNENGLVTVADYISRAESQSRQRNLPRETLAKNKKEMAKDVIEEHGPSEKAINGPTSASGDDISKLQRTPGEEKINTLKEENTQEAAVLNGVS
UniProt Q9UKT5: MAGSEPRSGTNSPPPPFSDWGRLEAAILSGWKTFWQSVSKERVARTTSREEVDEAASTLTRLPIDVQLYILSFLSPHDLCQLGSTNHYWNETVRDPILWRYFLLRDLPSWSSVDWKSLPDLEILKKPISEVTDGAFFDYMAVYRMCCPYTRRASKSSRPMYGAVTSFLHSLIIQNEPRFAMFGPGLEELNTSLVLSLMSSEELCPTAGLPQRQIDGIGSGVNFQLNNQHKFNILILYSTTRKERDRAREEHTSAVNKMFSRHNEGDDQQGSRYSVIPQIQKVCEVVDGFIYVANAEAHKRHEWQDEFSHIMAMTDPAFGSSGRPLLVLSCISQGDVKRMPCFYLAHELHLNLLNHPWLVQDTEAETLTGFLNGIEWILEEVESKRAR

These are yes or no findings as the source states them, for the method shown. In cells and extracts the contact can be indirect. A result given as binding can be weak or reduced; the word gives no strength.

Regarding Flag-Fbxo4ΔF (from UniProt Q9UKT5), the binding entry is recorded as “binds”.

For Fbxo4 C341W/A354R (from UniProt Q9UKT5), the binding result is “binds”.
